Binding data for four molecules are collected here from article doi:10.1101/2023.05.06.539678.

The chains behind the UniProt entries cited, without tags or fusion partners.
UniProt Q92609: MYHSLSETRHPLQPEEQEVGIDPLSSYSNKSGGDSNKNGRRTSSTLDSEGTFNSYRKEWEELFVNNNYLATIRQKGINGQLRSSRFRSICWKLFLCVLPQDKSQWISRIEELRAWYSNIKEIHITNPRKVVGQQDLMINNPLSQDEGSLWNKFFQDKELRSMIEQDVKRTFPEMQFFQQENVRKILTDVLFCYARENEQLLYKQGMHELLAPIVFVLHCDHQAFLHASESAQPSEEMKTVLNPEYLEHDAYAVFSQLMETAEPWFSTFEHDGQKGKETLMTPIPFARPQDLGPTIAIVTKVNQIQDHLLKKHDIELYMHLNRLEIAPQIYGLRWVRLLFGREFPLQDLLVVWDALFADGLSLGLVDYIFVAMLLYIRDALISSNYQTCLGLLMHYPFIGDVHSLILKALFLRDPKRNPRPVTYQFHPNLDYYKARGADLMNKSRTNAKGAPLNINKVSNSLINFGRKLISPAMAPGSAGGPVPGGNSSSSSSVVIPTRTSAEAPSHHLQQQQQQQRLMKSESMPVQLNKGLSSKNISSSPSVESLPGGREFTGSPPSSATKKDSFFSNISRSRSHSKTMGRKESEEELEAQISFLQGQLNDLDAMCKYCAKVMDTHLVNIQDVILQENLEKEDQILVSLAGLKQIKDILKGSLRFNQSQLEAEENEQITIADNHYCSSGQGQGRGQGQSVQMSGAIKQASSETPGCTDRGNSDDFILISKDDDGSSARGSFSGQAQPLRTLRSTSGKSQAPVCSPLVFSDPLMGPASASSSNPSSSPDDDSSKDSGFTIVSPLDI
UniProt Q13596: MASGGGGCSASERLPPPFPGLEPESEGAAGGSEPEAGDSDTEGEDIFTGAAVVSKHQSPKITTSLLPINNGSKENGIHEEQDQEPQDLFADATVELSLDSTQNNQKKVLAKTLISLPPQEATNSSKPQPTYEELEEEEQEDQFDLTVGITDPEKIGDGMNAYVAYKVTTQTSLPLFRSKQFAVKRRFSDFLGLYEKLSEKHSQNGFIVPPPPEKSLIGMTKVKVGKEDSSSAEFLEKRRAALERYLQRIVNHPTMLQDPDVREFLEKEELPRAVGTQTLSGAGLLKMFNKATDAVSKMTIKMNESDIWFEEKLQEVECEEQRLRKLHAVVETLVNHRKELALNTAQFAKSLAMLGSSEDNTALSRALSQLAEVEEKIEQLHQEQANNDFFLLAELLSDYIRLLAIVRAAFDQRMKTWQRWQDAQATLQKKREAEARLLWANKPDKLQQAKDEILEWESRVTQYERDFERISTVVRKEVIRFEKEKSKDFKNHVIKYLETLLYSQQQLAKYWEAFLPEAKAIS

The assay deals with T1, EMP3 in U-118 cells (proximity ligation assay) (human (endogenous in U-118)) (UniProt P54852).
T1 sequence: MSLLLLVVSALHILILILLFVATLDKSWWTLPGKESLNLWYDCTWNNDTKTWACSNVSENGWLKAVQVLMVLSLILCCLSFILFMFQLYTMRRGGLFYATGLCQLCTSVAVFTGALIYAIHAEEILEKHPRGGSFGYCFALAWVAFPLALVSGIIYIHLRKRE
Put plainly: proximity ligation.

These are yes or no findings as the source states them, for the method shown. In cells and extracts the contact can be indirect. Some entries that bind do so weakly or less than the wild type.

Regarding TBC1D5 (from UniProt Q92609 1-795), the binding result is “binds”.
The value for “EGFR (from UniProt P00533 25-1210) (receptor)” was “binds”.
In the case of SNX1 (from UniProt Q13596 1-522), the binding result is recorded as “binds”.

B1: VPS53 (protein, UniProt Q5VIR6 1-832)
chain: MMEEEELEFVEELEAVLQLTPEVQLAIEQVFPSQDPLDRADFNAVEYINTLFPTEQSLANIDEVVNKIRLKIRRLDDNIRTVVRGQTNVGQDGRQALEEAQKAIQQLFGKIKDIKDKAEKSEQMVKEITRDIKQLDHAKRHLTTSITTLNHLHMLAGGVDSLEAMTRRRQYGEVANLLQGVMNVLEHFHKYMGIPQIRQLSERVKAAQTELGQQILADFEEAFPSQGTKRPGGPSNVLRDACLVANILDPRIKQEIIKKFIKQHLSEYLVLFQENQDVAWLDKIDRRYAWIKRQLVDYEEKYGRMFPREWCMAERIAVEFCHVTRAELAKIMRTRAKEIEVKLLLFAIQRTTNFEGFLAKRFSGCTLTDGTLKKLESPPPSTNPFLEDEPTPEMEELATEKGDLDQPKKPKAPDNPFHGIVSKCFEPHLYVYIESQDKNLGELIDRFVADFKAQGPPKPNTDEGGAVLPSCADLFVYYKKCMVQCSQLSTGEPMIALTTIFQKYLREYAWKILSGNLPKTTTSSGGLTISSLLKEKEGSEVAKFTLEELCLICNILSTAEYCLATTQQLEEKLKEKVDVSLIERINLTGEMDTFSTVISSSIQLLVQDLDAACDPALTAMSKMQWQNVEHVGDQSPYVTSVILHIKQNVPIIRDNLASTRKYFTQFCVKFANSFIPKFITHLFKCKPISMVGAEQLLLDTHSLKMVLLDLPSISSQVVRKAPASYTKIVVKGMTRAEMILKVVMAPHEPLVVFVDNYIKLLTDCNTETFQKILDMKGLKRSEQSSMLELLRQRLPAPPSGAESSGSLSLTAPTPEQESSRIRKLEKLIKKRL
On to B1, for which the binding result is reported as “binds”.
